The list shows a part of the results. These are further read-outs of the screen, such as a control signal, another cell line or another target. No call is given for them. The list favours compounds with an active or inconclusive main result. Words in brackets tell the shape of the fitted curve; partial curves, single points and poor fits give uncertain potencies.

This test can be described thus: qHTS Assay to Find Inhibitors of Chronic Active B-Cell Receptor Signaling. As to conditions: ABC-DLBCL IkBa-CBG/CBR reporter, luminescence ratio (green luciferase fused to IkBa over red control in TMD8 lymphoma cells), 4 h; measured here: CBR red luminescence, cell number. Put shortly:
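Compounds up to 46 uM were incubated four hours with TMD8 cells whose green CBG68 luciferase is fused to IkappaBalpha; red CBR luminescence normalised the signal, and concentration-effect curves were fitted to fusion, red and ratio data.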
(In general: qHTS replaces the single test concentration by a dilution series.)
Usually AC50 stands for the midpoint of the concentration-response curve, whichever way the signal moves. For `O=C(Nc1nccs1)c1cccc(N2C(=O)c3cccc4c([N+](=O)[O-])ccc(c34)C2=O)c1`, the AC50 is 18.4 µM [falling, single point].
As for `CC(C)c1ccc(NC2CCCN(C(=O)c3ccsc3)C2)cc1` (configuration not stated), the concentration at half-maximal activity (AC50) is 2.51 µM [rising, partial curve, poor fit].
As for `CCOC(=O)C1CCN(C(=O)CCc2c(C)nc3cc(-c4ccccc4)nn3c2C)CC1`, the figure is 11.2 µM [falling, partial curve, poor fit]; as for `O=C(CCc1ccccc1)NC(=S)Nc1ccc(S(=O)(=O)N2CCOCC2)cc1`, 9.2 µM [rising, partial curve]; as for `COc1ccc(/C=C/C(=O)OCC(=O)NC2CCCC(C)C2C)c(OC)c1` (configuration not stated), 5.17 µM [rising, partial curve, poor fit].
With `CCOC(=O)N1CCN(Cc2nc3ccc([N+](=O)[O-])cc3c(=O)n2-c2ccccc2F)CC1`, the half-maximal activity concentration (AC50) was 12.6 µM [rising, partial curve].
As for `CN(C)c1ccc(N/C=C/C(=O)c2ccco2)cc1`, the figure is 32.6 µM [falling, single point]; as for `CCCCn1c(SCc2c(C)noc2C)nc2cc(S(N)(=O)=O)ccc21`, 7.08 µM [rising, full curve]; as for `NS(=O)(=O)c1cccc(NC(=O)CN2CCc3ccccc32)c1`, 10 µM [falling, partial curve, poor fit].
The figure for `CC(=O)c1cccc2c(O)c(C3=Nc4ccccc4C3=O)[nH]c12` is 7.31 µM [falling, partial curve].
The figure for `Brc1ccc(-c2noc(-c3ccccc3)n2)o1` is 31.6 µM [falling, single point].
As for `CC(C)Cc1csc(NC(=O)c2ccccc2Cl)c1C(=O)O`, the half-maximal activity concentration (AC50) is 16.4 µM [falling, partial curve].
The figure for `Cc1cc(C(=O)CSc2nnc(CCC(N)=O)n2C)c(C)n1C1CC1` is 32.6 µM [rising, partial curve, poor fit]; for `CCOc1ccc(NC(=O)CN2C(=O)/C(=C3\SC(=S)N(C4CCS(=O)(=O)C4)C3=O)c3ccccc32)cc1` (configuration not stated) it is 5.01 µM [rising, full curve, poor fit].
The figure for `COc1cc(C(=O)COC(=O)C2CCCCC2)cc(OC)c1OC` is 29.1 µM [rising, single point]; for `O=C(O)CCC(=O)Nc1cccc(C(=O)Nc2ccc(Br)cc2)c1` it is 35.5 µM [falling, partial curve, poor fit].
As for `O=C1OCCN1C(=O)[C@H]1[C@H](c2ccc(Cl)cc2)C(c2cccc(Cl)c2)=NN1c1ccc(Br)cc1`, the figure is 16.4 µM [rising, partial curve, poor fit].

The values are drawn from PubChem BioAssay AID493014 (National Center for Advancing Translational Sciences (NCATS), 2011).
